Assay results from patent US20240295544A1 (priority 2020, published 2024).
At least one structure is not confirmed: it was looked up by name or label, or the drawing left a doubt.

System: SARS-CoV-2
Format: cell-based
Conditions: CMs primed with interferon plus ruxolitinib (500 nM, Table 1A) prior to infection

SMILES: N#CC[C@H](C1CCCC1)n1cc(-c2ncnc3[nH]ccc23)cn1 [ruxolitinib]
- effect of JAK/Stat inhibition on interferon-mediated prevention of infection: reversed
